Measured values as given in article doi:10.1101/2024.11.25.625148.
Where two headings read alike, the source gives them in different places. These are yes or no findings as the source states them, for the method shown. In cells and extracts the contact can be indirect. Some binding calls cover weakened binding; strength is not graded here.

Protein sequences, listed by entry. Tags and fused reporters are not part of them. Residues count along the entry.
UniProt Q8K2C6, residues 37-310: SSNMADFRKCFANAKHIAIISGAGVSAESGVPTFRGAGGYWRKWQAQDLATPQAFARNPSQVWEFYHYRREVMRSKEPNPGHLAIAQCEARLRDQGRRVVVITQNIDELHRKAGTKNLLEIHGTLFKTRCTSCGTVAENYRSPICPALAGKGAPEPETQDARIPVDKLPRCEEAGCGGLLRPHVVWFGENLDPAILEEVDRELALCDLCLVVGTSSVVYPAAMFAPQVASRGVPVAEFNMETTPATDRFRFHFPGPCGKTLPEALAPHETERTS

How the values were obtained:
[1] = biological target: Sirt5 (mouse (endogenous in HL-1 cells and mouse myocardium)) (UniProt Q8K2C6); assay: co-IP
[2] = biological target: Sirt5 (mouse (endogenous in HL-1 cells and mouse myocardium)) (UniProt Q8K2C6); assay: co-IP; remark: listed apart in the source

B1: adenine nucleotide translocase 2 (ANT2) (protein, UniProt P51881 1-298)
chain: MTDAAVSFAKDFLAGGVAAAISKTAVAPIERVKLLLQVQHASKQITADKQYKGIIDCVVRIPKEQGVLSFWRGNLANVIRYFPTQALNFAFKDKYKQIFLGGVDKRTQFWRYFAGNLASGGAAGATSLCFVYPLDFARTRLAADVGKAGAEREFKGLGDCLVKIYKSDGIKGLYQGFNVSVQGIIIYRAAYFGIYDTAKGMLPDPKNTHIFISWMIAQSVTAVAGLTSYPFDTVRRRMMMQSGRKGTDIMYTGTLDCWRKIARDEGSKAFFKGAWSNVLRGMGGAFVLVLYDEIKKYT
binding [1]: binds | binding [2]: binds
